Reference: the supplement of paper PMC10849652
This is one part of the list.

Chains of the proteins cited; added tags and fusions are not shown. Lines headed by an entry give the natural chain unless they say otherwise; changes in a name come on top.
UniProt Q9HA65: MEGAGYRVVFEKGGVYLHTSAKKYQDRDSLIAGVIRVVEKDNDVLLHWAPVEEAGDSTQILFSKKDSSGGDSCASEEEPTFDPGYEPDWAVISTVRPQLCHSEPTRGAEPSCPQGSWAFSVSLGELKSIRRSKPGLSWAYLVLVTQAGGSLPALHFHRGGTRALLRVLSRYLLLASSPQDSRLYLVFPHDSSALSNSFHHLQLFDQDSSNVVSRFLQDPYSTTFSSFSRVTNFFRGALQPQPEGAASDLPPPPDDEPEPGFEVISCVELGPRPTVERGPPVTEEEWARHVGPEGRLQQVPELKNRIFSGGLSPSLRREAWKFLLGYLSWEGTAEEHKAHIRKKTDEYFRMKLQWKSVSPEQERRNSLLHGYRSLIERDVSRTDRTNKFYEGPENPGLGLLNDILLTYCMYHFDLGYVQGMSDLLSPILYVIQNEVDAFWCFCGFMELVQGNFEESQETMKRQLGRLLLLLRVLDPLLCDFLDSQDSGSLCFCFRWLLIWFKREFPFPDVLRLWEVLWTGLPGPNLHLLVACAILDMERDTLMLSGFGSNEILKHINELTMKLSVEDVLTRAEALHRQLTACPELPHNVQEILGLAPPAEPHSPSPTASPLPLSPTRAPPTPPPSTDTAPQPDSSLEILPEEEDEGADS
UniProt Q8NI27: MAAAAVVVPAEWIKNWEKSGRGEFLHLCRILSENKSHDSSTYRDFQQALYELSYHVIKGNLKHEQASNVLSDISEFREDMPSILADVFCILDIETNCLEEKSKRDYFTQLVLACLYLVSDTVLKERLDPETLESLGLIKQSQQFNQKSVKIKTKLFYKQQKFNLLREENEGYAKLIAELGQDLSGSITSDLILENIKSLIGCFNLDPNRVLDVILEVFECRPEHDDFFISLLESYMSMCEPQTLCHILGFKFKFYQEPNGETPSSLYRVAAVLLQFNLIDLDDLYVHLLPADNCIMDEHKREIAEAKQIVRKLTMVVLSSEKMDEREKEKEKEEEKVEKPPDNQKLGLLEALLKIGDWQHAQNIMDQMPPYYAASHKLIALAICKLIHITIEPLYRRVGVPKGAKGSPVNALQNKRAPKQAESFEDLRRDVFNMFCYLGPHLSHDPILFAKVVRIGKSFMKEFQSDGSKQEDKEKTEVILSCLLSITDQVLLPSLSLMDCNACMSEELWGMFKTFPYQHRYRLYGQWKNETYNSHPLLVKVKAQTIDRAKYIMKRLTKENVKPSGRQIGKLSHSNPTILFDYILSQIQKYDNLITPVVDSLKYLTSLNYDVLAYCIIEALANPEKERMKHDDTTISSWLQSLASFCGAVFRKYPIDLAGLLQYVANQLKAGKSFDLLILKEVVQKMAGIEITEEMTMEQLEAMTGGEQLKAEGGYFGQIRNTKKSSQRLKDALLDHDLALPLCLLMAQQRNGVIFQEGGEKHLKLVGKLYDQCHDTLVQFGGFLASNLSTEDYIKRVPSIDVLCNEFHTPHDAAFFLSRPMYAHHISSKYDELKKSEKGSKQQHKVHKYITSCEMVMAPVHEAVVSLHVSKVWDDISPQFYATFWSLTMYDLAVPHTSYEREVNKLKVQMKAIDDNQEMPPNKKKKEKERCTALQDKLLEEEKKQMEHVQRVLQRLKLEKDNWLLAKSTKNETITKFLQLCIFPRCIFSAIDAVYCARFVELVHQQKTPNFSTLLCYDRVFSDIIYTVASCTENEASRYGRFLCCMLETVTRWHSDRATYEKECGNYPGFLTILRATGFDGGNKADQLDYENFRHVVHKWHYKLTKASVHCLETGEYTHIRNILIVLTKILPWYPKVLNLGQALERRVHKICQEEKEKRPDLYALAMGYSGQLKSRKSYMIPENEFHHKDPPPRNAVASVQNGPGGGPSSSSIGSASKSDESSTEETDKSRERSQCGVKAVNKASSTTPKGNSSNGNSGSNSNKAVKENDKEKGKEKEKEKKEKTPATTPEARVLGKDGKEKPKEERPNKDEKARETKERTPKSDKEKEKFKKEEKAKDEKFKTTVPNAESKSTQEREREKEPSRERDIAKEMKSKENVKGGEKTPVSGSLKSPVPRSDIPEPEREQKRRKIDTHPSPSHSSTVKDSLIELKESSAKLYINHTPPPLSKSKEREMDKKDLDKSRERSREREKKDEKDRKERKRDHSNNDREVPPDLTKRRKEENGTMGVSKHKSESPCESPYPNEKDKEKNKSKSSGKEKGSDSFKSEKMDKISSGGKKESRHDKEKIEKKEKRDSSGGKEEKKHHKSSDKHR
UniProt Q9BSF4: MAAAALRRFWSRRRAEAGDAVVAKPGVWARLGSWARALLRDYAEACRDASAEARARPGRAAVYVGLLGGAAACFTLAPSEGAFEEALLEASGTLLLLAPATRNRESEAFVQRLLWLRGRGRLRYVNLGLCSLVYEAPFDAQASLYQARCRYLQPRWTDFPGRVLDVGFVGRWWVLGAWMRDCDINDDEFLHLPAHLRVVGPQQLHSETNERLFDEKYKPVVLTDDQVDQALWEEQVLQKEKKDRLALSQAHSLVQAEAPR
UniProt P17987, whole entry, looked up: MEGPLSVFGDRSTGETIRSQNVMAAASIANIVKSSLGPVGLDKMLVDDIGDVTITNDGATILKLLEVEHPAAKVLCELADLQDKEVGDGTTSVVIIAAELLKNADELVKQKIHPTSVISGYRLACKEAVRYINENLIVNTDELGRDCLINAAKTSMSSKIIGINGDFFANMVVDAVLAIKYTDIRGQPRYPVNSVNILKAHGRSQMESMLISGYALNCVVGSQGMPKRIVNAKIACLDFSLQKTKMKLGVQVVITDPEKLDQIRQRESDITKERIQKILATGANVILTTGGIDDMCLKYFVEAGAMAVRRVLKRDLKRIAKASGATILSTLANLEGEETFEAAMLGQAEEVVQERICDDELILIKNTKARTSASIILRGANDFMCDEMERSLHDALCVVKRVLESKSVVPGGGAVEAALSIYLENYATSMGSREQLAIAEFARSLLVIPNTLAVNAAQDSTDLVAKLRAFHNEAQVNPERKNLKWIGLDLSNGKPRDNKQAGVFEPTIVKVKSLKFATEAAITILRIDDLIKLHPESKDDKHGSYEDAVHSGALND
UniProt P35443: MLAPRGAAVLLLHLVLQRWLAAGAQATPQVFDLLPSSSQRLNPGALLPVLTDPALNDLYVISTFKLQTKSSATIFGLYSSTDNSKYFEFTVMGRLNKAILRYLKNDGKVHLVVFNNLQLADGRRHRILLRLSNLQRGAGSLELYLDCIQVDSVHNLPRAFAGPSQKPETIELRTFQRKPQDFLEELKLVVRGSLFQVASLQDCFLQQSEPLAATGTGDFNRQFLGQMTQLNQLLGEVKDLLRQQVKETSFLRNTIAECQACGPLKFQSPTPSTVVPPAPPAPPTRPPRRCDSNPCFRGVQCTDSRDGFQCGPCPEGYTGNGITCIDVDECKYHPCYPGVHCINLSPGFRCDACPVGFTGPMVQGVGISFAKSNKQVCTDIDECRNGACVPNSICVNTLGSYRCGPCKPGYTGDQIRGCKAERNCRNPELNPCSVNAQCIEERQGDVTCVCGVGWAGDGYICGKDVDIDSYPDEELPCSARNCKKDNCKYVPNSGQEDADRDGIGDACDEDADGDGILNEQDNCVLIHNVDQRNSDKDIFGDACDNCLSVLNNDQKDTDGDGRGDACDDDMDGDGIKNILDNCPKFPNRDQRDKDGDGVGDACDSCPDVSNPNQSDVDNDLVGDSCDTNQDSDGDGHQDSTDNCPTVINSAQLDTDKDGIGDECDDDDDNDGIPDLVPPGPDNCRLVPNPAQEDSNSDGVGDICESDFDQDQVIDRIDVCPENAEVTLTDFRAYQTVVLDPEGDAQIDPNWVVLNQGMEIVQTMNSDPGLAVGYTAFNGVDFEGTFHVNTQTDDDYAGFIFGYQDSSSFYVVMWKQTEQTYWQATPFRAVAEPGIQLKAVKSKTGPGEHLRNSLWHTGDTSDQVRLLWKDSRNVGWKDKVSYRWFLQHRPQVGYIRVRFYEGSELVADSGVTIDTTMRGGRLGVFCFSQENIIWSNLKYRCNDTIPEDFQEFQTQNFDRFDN
UniProt Q9NYB0: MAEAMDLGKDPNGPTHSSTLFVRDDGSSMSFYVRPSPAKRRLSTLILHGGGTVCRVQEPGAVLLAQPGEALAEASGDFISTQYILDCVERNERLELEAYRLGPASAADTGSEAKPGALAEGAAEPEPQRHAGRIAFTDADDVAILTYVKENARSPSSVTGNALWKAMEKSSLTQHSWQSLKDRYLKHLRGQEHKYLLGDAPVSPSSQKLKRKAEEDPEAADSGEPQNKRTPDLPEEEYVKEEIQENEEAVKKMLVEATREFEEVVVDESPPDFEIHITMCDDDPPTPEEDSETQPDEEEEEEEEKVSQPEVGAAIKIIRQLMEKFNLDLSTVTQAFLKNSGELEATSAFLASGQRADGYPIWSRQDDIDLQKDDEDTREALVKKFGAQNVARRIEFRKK
UniProt P01033: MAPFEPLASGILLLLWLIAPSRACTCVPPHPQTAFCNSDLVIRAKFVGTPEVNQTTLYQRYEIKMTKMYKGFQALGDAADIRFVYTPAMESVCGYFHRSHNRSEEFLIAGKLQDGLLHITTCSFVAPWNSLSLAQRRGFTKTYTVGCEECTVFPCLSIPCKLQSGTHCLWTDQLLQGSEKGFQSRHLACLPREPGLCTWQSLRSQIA
UniProt Q9UDY2: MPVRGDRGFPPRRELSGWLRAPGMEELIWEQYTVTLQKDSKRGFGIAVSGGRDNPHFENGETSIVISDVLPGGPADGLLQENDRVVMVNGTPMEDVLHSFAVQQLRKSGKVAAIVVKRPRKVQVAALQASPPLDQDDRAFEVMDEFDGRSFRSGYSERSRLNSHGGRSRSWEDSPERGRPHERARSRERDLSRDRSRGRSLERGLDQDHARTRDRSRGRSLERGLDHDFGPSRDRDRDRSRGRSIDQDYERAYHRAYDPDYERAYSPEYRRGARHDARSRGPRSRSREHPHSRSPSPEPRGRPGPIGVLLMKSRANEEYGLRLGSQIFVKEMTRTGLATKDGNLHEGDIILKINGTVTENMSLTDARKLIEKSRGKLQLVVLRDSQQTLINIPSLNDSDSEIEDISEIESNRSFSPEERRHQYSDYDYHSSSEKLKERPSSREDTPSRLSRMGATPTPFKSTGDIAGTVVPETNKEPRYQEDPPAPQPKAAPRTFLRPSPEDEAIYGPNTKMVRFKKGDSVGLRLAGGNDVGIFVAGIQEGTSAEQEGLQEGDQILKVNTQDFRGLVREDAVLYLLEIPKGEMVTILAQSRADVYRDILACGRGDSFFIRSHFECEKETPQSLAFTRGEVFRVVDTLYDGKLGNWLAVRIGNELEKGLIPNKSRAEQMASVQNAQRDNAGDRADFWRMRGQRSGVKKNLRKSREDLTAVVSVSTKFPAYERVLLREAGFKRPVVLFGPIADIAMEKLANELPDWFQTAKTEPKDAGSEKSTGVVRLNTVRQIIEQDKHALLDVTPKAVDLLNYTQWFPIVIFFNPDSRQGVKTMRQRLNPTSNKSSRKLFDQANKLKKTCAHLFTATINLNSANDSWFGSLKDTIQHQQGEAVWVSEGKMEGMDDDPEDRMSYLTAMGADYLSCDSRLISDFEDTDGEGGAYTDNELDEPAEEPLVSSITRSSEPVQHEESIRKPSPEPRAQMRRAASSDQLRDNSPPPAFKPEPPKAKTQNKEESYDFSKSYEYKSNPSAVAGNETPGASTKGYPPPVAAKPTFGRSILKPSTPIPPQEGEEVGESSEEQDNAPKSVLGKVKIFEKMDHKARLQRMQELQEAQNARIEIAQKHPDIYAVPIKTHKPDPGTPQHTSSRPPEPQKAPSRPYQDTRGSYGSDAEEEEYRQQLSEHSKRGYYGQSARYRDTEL
UniProt Q9Y5L4: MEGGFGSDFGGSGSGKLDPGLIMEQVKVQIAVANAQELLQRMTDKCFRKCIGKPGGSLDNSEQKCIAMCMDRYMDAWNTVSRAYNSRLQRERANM
UniProt Q01085: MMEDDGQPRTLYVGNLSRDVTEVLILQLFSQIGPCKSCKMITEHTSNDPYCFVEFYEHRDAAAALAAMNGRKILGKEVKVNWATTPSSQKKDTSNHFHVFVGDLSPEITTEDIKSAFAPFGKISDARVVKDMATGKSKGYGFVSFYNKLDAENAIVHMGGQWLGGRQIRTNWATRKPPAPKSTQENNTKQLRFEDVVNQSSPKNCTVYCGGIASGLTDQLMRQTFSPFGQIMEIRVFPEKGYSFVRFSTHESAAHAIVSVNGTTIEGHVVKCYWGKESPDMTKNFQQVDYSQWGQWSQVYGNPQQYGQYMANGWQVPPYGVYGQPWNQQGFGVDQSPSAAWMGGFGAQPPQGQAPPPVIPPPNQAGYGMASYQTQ
UniProt O60830: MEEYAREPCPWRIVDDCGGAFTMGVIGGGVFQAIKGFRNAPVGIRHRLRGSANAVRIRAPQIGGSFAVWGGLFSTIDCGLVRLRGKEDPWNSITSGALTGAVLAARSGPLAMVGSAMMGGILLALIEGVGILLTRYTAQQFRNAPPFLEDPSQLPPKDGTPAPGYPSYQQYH
UniProt Q9Y5J6: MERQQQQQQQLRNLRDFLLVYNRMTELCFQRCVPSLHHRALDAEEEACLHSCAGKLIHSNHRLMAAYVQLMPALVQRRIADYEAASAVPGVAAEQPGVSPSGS

Columns and labels:
Test in all cases: log2 fold change, soluble protein after heating vs DMSO (PISA); higher = thermal stabilisation; K562 cells, 10 uM, 30 min; active = over 0.2 and 3.5 SD of the protein, either way, in both replicates (recomputed)
[1] = compound: C1=CC=C(C=C1)[C@H](COC2=CC3=C(C=C2)NC(=O)N3)NC(=O)C4=CC=CN(C4=O)CC5=CC(=C(C=C5)F)F
Method in brief: (§1)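 K562 cells at 2×10^6 cells/mL were given 10 μM compound for 30 min. Aliquots then went through 3 min of heating across 48°C-58°C, were pooled, and were extracted in PBS with 0.5% NP-40 at 4°C, and the supernatant after 21,000xg for 90 min was quantified by TMTpro 16plex LC-MS/MS with channel sums equalised. Thermal stability relative to control samples, from duplicates, is given as log2 fold change.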

[2] = compound: CC1=C(SC2=C1C(=N[C@H](C3=NN=C(N32)C)CC(=O)N)C4=CC=C(C=C4)Cl)C
Method in brief: as §1

[3] = compound: CC1=C2C(=CC=C1)N=C(N(C2=O)C3=CC=CC=C3C)CN4C=NC5=C(N=CN=C54)N
Method in brief: as §1

[4] = compound: Cc1sc2c(c1C)C(c1ccc(Cl)cc1)=N[C@@H](CC(=O)OC(C)(C)C)c1nnc(C)n1-2
Method in brief: as §1

[5] = compound: c1ccc([C@@H]2C[C@H]2NC2CCNCC2)cc1
Method in brief: as §1

Measured: log2 fold change

TBC1D17 (UniProt Q9HA65)
inactive: [1] 0.08 | [2] 0.005 | [3] 0.048 | [4] -0.172 | [5] -0.01

THOC2 (UniProt Q8NI27)
inactive: [1] -0.049 | [2] -0.061 | [3] 0.09 | [4] 0 | [5] 0.076

TIMM29 (UniProt Q9BSF4)
inactive: [1] -0.034 | [2] 0.114 | [3] -0.026 | [4] -0.006 | [5] 0.031

TIA1 (UniProt P31483)
inactive: [1] 0.018 | [2] 0.024 | [3] 0.017 | [4] 0.012 | [5] -0.026

TIMM44 (UniProt O43615)
inactive: [1] -0.099 | [2] 0.043 | [3] 0.088 | [4] 0.008 | [5] -0.017

TCP1 (UniProt P17987)
inactive: [1] 0.001 | [2] 0.011 | [3] -0.012 | [4] -0.011 | [5] -0.01

TLE3 isoform 4 (UniProt Q04726)
inactive: [1] 0.028 | [2] 0.033 | [3] 0.029 | [4] -0.051 | [5] 0.009

THBS4 (UniProt P35443)
inactive: [1] -0.091 | [2] -0.007 | [3] 0.138 | [4] -0.055 | [5] 0.06

TERF2IP (UniProt Q9NYB0)
inactive: [1] 0.003 | [2] 0.01 | [3] 0.004 | [4] -0.01 | [5] 0.066

TIMP1 (UniProt P01033)
inactive: [1] 0.021 | [2] -0.039 | [3] 0.068 | [4] 0 | [5] 0.077

TJP2 isoform 7 (UniProt Q9UDY2)
inactive: [1] -0.03 | [2] 0.084 | [3] 0.081 | [4] 0.04 | [5] -0.044

TIMM13 (UniProt Q9Y5L4)
inactive: [1] -0.049 | [2] 0.049 | [3] 0.012 | [4] -0.035 | [5] 0.013

TLCD4 (UniProt Q96MV1)
inactive: [1] 0.017 | [2] 0.028 | [3] -0.035 | [4] -0.059 | [5] 0.047

Retrieved one by one from the list above, 2 records:
TIMP1 (UniProt P01033)
inactive: [1] 0.021 | [2] -0.039 | [3] 0.068 | [4] 0 | [5] 0.077

TIMM13 (UniProt Q9Y5L4)
inactive: [1] -0.049 | [2] 0.049 | [3] 0.012 | [4] -0.035 | [5] 0.013

Next records follow.

TIAL1 isoform 2 (UniProt Q01085)
inactive: [1] -0.023 | [2] 0.049 | [3] 0.015 | [4] 0.043 | [5] -0.024

THUMPD3 (UniProt Q9BV44)
inactive: [1] 0.008 | [2] 0.063 | [3] 0.008 | [4] -0.037 | [5] -0.006

TIMM50 isoform 2 (UniProt Q3ZCQ8)
inactive: [1] -0.006 | [2] 0.061 | [3] 0.072 | [4] -0.016 | [5] 0

TGFBR1 isoform 2 (UniProt P36897)
inactive: [1] -0.001 | [2] 0.029 | [3] -0.047 | [4] -0.029 | [5] 0.026

TCEA1 (UniProt P23193)
inactive: [1] -0.067 | [2] 0.002 | [3] 0.003 | [4] -0.013 | [5] -0.026

THYN1 (UniProt Q9P016)
inactive: [1] -0.024 | [2] 0.044 | [3] 0.043 | [4] 0.01 | [5] -0.067

TIMM17B (UniProt O60830)
inactive: [1] 0 | [2] 0.028 | [3] -0.102 | [4] 0.056 | [5] 0.001

TBL1XR1 (UniProt Q9BZK7)
inactive: [1] -0.041 | [2] 0.016 | [3] 0.037 | [4] 0.01 | [5] 0.047

TIMM9 (UniProt Q9Y5J7)
inactive: [1] 0.016 | [2] 0.137 | [3] 0.081 | [4] -0.059 | [5] -0.082

TIMM10B (UniProt Q9Y5J6)
inactive: [1] -0.018 | [2] 0.18 | [3] 0.058 | [4] 0.066 | [5] -0.026

TDRKH (UniProt Q9Y2W6)
inactive: [1] -0.015 | [2] 0.005 | [3] 0.041 | [4] -0.01 | [5] -0.006

TCF12 isoform 3 (UniProt Q99081)
inactive: [1] 0.198 | [2] 0.022 | [3] 0.054 | [4] -0.056 | [5] 0.026
